{"source": "paper PMC11019928", "target": "T1, VitR (His-VitR) (Chromobacterium violaceum) (UniProt Q7NZ65)", "T1 sequence (looked up)": "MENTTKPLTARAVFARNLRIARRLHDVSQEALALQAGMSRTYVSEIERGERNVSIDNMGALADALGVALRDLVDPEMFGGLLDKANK", "assay": "EMSA", "settings": "shift starts at 10 nM VitR, complete at 25 nM, 0.1 mg/mL salmon sperm DNA, 10 mM Tris-HCl pH 7.5, 40 mM KCl, 1 mM MgCl2, 0.1 mg/mL BSA, 1 mM DTT, 5% glycerol, 20 uL, 25 C 25 min, native 5% PAGE in TB, recombinant protein, residues 1-87, protein details: N-terminal His-tag (pET15b), label: 32P (5' end, T4 PNK), probe letters rebuilt from the primers and the genome", "note": "Tags and fusion partners may be left off the protein sequences shown.", "data": [{"sequence": "GGCCTAGGATCCCGTTGTGTTTTCCATACCCCGATAGCATCAGCGCTTGCTAGCGCTCAAGCCACGCGGTATGATTTGCAAAATGTTAACTATAAGTGACTTTTTGATTTTTATTGATATCTTCATGACACTCATTATGTGCTATGCGCTGCTCTGACGGCCACACATGGAGGTGCTTATGCAGAAAATTCCCATTCCGTGATCTACGGCGTTTTCCCGCTACCGCTCTGCCTTGACCATATCCAGAGCCTTGTCCGCCCAACCATCGCAAGGTTCAAACACAATGAGGGTTTTGCCATGCCTAGCATCACCCGCAGTTCGTCTCATCTCGCGGAATTCGCTAGG (double strand) [vioS/vitR intergenic promoter region (specific probe)]", "values": [{"measurement": "binding result", "value": "binds"}]}]}
